Data: the supplement of paper PMC10849652
The other results are listed elsewhere or left out.

Chains of the proteins cited; added tags and fusions are not shown. Lines headed by an entry give the natural chain unless they say otherwise; changes in a name come on top.
UniProt Q5JTH9: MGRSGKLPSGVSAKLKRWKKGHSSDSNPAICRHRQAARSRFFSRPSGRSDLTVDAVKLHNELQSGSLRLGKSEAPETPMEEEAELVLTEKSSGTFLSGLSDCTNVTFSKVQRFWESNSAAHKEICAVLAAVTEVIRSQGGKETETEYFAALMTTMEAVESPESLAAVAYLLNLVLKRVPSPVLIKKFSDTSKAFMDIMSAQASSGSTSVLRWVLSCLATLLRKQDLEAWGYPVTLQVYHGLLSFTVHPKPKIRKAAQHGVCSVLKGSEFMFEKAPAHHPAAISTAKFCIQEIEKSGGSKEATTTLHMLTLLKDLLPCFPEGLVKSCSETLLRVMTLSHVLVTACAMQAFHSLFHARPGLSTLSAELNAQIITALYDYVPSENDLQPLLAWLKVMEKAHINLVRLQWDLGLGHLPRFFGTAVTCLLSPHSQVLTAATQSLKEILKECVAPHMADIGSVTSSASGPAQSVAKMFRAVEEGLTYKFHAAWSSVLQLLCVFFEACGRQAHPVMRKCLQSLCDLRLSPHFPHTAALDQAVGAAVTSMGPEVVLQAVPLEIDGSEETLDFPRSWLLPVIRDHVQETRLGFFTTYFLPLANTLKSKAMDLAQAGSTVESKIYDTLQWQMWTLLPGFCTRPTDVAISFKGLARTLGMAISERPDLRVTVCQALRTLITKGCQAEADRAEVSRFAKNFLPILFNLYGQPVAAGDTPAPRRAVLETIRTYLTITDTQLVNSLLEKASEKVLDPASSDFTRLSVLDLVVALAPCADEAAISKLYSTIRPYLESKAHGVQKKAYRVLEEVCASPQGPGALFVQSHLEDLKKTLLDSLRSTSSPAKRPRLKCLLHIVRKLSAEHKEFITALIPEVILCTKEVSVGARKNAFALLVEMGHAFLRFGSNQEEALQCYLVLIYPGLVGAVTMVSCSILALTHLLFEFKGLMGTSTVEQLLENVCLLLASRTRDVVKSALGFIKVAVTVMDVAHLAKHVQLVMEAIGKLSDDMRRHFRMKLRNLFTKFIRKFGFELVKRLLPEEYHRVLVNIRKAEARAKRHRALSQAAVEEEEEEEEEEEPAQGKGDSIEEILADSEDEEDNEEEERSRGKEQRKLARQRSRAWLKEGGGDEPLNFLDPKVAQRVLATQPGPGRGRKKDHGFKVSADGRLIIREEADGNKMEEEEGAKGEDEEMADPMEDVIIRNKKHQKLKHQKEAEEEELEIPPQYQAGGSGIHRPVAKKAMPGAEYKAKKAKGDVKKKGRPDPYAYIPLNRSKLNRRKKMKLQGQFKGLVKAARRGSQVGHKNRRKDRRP
UniProt Q9Y6Y8: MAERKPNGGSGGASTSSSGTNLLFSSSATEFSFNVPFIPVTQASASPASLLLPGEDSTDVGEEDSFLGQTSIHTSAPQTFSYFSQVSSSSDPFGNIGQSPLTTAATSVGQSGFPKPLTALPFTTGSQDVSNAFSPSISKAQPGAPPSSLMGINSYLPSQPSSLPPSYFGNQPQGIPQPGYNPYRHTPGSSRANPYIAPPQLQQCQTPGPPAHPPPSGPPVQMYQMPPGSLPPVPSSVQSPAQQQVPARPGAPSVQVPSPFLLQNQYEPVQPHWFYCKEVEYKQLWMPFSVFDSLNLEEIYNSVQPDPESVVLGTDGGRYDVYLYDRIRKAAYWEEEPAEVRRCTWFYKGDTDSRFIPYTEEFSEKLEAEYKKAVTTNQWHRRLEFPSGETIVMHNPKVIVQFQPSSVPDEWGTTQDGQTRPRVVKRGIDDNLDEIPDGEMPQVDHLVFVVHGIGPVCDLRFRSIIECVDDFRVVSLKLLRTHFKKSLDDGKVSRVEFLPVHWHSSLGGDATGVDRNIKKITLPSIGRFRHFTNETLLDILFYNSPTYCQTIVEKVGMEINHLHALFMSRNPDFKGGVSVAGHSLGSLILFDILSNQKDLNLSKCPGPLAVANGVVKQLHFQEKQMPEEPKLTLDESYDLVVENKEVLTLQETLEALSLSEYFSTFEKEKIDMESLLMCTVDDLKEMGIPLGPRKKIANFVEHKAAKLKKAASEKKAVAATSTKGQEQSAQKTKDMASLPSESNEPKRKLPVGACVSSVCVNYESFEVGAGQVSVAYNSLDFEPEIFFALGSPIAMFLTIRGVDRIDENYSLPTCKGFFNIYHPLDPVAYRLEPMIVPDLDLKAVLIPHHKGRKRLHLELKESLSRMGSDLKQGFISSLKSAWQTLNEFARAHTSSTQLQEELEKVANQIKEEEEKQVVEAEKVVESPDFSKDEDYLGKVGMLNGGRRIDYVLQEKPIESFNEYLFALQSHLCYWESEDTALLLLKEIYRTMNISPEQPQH
UniProt Q96GA7: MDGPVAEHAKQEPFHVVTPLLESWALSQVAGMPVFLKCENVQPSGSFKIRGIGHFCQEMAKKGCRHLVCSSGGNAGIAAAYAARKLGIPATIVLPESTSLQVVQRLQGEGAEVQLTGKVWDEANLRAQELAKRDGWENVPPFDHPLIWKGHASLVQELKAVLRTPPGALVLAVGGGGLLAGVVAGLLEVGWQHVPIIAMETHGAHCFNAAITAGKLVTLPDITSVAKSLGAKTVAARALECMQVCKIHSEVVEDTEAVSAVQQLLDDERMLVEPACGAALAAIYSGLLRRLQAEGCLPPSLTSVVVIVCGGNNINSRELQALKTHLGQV
UniProt P67812: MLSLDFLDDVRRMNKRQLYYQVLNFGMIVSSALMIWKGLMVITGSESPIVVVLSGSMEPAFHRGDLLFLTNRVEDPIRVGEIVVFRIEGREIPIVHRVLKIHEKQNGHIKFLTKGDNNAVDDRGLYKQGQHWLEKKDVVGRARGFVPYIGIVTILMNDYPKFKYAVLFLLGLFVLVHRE
UniProt Q96NL6: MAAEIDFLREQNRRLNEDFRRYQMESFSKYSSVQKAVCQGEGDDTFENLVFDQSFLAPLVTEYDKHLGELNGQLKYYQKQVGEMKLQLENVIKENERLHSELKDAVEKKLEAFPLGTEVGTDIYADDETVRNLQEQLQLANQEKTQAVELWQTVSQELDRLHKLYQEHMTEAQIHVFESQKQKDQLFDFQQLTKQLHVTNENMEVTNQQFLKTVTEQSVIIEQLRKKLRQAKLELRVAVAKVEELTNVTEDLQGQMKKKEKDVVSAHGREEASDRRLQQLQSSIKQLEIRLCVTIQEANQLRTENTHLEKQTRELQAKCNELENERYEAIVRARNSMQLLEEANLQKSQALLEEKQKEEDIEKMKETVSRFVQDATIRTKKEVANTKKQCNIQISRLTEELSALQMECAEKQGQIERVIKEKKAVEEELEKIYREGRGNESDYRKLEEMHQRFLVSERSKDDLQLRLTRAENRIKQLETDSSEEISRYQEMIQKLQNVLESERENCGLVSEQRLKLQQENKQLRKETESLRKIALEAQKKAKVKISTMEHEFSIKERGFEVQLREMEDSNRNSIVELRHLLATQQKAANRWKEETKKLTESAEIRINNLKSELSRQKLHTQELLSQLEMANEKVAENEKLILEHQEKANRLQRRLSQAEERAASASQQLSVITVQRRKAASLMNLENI
UniProt P25815: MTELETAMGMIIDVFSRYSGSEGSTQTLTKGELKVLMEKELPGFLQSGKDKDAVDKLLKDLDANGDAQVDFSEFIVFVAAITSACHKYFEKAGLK
UniProt Q15404: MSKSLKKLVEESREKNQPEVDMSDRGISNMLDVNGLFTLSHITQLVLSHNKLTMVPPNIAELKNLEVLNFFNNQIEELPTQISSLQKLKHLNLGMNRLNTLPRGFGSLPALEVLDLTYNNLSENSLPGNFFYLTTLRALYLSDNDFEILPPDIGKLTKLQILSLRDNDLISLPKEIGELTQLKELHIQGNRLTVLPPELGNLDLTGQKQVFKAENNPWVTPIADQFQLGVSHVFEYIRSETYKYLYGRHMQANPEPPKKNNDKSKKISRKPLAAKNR
UniProt O95248: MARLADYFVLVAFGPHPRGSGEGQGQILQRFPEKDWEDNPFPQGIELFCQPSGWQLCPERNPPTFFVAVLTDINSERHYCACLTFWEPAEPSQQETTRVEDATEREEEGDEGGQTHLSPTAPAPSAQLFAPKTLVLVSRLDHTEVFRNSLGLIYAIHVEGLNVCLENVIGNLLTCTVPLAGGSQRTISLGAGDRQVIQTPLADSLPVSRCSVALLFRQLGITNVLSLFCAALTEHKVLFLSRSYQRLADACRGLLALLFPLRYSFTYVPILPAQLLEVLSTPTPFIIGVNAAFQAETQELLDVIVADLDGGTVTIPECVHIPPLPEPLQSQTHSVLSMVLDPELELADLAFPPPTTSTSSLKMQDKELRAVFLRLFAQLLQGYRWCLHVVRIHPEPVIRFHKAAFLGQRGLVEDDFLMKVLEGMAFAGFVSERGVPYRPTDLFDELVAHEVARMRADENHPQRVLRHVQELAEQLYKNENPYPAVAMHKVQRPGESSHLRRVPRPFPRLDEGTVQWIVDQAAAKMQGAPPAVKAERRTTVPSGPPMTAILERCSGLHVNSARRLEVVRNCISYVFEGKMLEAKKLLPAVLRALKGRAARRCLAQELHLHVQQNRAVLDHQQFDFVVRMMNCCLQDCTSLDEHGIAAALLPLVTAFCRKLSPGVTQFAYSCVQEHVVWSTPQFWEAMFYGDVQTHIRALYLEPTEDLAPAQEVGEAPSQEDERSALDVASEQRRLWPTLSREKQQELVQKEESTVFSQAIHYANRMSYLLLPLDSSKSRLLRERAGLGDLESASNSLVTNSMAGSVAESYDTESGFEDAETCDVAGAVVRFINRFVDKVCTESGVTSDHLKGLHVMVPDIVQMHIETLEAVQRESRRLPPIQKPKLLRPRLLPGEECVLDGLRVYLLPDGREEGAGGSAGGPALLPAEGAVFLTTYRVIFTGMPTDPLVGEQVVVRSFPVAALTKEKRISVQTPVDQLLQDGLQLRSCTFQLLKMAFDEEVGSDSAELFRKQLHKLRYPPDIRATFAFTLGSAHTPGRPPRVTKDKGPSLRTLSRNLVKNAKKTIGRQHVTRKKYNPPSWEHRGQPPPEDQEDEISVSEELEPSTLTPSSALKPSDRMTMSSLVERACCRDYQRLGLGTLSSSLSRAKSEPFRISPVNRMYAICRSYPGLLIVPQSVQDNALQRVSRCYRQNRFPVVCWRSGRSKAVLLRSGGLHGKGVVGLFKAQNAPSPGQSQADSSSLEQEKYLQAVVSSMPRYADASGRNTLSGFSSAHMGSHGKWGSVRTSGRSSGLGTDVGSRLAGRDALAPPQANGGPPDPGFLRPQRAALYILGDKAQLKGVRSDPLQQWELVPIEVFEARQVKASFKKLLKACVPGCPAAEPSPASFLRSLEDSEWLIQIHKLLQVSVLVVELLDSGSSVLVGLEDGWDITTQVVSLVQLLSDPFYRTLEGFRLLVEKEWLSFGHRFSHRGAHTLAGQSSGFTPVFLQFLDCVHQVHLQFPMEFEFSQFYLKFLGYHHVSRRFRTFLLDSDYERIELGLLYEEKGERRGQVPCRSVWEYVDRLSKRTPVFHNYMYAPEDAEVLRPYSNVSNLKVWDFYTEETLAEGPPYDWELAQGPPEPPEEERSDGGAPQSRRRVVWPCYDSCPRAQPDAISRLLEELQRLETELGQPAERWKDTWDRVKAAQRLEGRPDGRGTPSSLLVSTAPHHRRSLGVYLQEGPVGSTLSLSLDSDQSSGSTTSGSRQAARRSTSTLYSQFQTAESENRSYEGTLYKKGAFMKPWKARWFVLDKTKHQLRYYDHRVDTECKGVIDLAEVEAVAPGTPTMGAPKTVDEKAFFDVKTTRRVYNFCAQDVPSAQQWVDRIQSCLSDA
UniProt Q9Y512: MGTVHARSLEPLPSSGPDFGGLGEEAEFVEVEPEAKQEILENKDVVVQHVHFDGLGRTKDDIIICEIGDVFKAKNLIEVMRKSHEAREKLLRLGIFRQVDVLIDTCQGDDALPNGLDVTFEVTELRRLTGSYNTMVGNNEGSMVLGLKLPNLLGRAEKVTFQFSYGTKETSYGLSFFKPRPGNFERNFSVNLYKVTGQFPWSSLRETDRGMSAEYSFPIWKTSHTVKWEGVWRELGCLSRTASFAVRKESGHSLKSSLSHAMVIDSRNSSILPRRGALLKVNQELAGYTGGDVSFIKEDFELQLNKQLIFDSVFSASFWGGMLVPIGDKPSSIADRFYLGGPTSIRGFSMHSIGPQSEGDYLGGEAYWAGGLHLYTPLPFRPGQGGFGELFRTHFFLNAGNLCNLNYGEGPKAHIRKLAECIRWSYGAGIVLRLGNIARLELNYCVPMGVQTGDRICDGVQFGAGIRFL

Experiments:
Assay in all cases: log2 fold change, soluble protein after heating vs DMSO (PISA); higher = thermal stabilisation; K562 cells, 10 uM, 30 min; active = over 0.2 and 3.5 SD of the protein, either way, in both replicates (recomputed)
[1] = compound: COC1=CC=C(C=C1)CN2C=CC3=C2C=C(C=C3)C(=O)NO
Summary of the method: (§1)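 Quantification of soluble protein used TMTpro 16plex LC-MS/MS, with channel sums equalised. Samples were the supernatant after 21,000xg for 90 min of pooled aliquots from K562 cells (2×10^6 cells/mL) treated with 10 μM compound for 30 min, heated for 3 min over 48°C-58°C, and extracted in PBS with 0.5% NP-40 at 4°C. Values, from duplicates, describe thermal stability against control samples on a log2 fold-change scale.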

filanesib = compound: CON(C)C(=O)N1N=C(c2cc(F)ccc2F)S[C@@]1(CCCN)c1ccccc1 [filanesib]
Summary of the method: as §1

zotarolimus = compound: CO[C@H]1C[C@@H]2CC[C@@H](C)[C@@](O)(O2)C(=O)C(=O)N2CCCC[C@H]2C(=O)O[C@H]([C@H](C)C[C@@H]2CC[C@H](n3cnnn3)[C@H](OC)C2)CC(=O)[C@H](C)/C=C(\C)[C@@H](O)[C@@H](OC)C(=O)[C@H](C)C[C@H](C)/C=C/C=C/C=C/1C [zotarolimus]
Summary of the method: as §1

idasanutlin = compound: COc1cc(C(=O)O)ccc1NC(=O)[C@@H]1N[C@@H](CC(C)(C)C)[C@](C#N)(c2ccc(Cl)cc2F)[C@H]1c1cccc(Cl)c1F [idasanutlin]
Summary of the method: as §1

alisertib = compound: COc1cc(Nc2ncc3c(n2)-c2ccc(Cl)cc2C(c2c(F)cccc2OC)=NC3)ccc1C(=O)O [alisertib]
Summary of the method: as §1

[2] = compound: COc1cc2nc(-c3cc(F)ccc3O)nc(N[C@@H]3CNC[C@H]3C(C)(C)O)c2cc1OC
Summary of the method: as §1

gefitinib = compound: COc1cc2ncnc(Nc3ccc(F)c(Cl)c3)c2cc1OCCCN1CCOCC1 [gefitinib]
Summary of the method: as §1

[3] = compound: COc1cccc2cc(-c3nc([C@H]4CC[C@H](C(=O)O)CC4)n4ncnc(N)c34)[nH]c12
Summary of the method: as §1

lapatinib = compound: CS(=O)(=O)CCNCc1ccc(-c2ccc3ncnc(Nc4ccc(OCc5cccc(F)c5)c(Cl)c4)c3c2)o1 [lapatinib]
Summary of the method: as §1

pictilisib = compound: CS(=O)(=O)N1CCN(Cc2cc3nc(-c4cccc5[nH]ncc45)nc(N4CCOCC4)c3s2)CC1 [pictilisib]
Summary of the method: as §1

## SCAF4 (UniProt O95104)
[1]
  log2 fold change: inactive: -0.053
filanesib
  log2 fold change: inactive: 0.006
zotarolimus
  log2 fold change: inactive: -0.016
idasanutlin
  log2 fold change: inactive: 0.036
alisertib
  log2 fold change: inactive: 0.075
[2]
  log2 fold change: inactive: -0.123
gefitinib
  log2 fold change: inactive: 0.041
[3]
  log2 fold change: inactive: 0.025
lapatinib
  log2 fold change: inactive: -0.092
pictilisib
  log2 fold change: inactive: 0.076

## RRP12 (UniProt Q5JTH9)
[1]
  log2 fold change: inactive: -0.03
filanesib
  log2 fold change: inactive: 0.288
zotarolimus
  log2 fold change: inactive: -0.046
idasanutlin
  log2 fold change: inactive: 0.032
alisertib
  log2 fold change: inactive: 0.204
[2]
  log2 fold change: inactive: 0.222
gefitinib
  log2 fold change: inactive: -0.104
[3]
  log2 fold change: inactive: -0.222
lapatinib
  log2 fold change: inactive: -0.128
pictilisib
  log2 fold change: inactive: 0.032

## SEC23IP (UniProt Q9Y6Y8)
[1]
  log2 fold change: inactive: -0.006
filanesib
  log2 fold change: inactive: 0
zotarolimus
  log2 fold change: inactive: -0.002
idasanutlin
  log2 fold change: inactive: 0.016
alisertib
  log2 fold change: inactive: 0
[2]
  log2 fold change: inactive: -0.065
gefitinib
  log2 fold change: inactive: 0.009
[3]
  log2 fold change: inactive: -0.096
lapatinib
  log2 fold change: inactive: 0.035
pictilisib
  log2 fold change: inactive: -0.006

## RSRC2 (UniProt Q7L4I2)
[1]
  log2 fold change: inactive: 0.033
filanesib
  log2 fold change: inactive: 0.066
zotarolimus
  log2 fold change: inactive: -0.002
idasanutlin
  log2 fold change: inactive: 0.048
alisertib
  log2 fold change: inactive: -0.102
[2]
  log2 fold change: inactive: 0.034
gefitinib
  log2 fold change: inactive: 0.005
[3]
  log2 fold change: inactive: 0.022
lapatinib
  log2 fold change: inactive: -0.021
pictilisib
  log2 fold change: inactive: 0.011

## SDSL (UniProt Q96GA7)
[1]
  log2 fold change: inactive: 0.065
filanesib
  log2 fold change: inactive: -0.005
zotarolimus
  log2 fold change: inactive: -0.015
idasanutlin
  log2 fold change: inactive: -0.039
alisertib
  log2 fold change: inactive: -0.024
[2]
  log2 fold change: inactive: -0.015
gefitinib
  log2 fold change: inactive: 0.049
[3]
  log2 fold change: inactive: 0.057
lapatinib
  log2 fold change: inactive: -0.004
pictilisib
  log2 fold change: inactive: 0.082

## SAE1 (UniProt M0R286)
[1]
  log2 fold change: inactive: -0.03
filanesib
  log2 fold change: inactive: 0.034
zotarolimus
  log2 fold change: inactive: -0.563
alisertib
  log2 fold change: inactive: -0.076
[2]
  log2 fold change: inactive: 0.282
[3]
  log2 fold change: inactive: 0.485
lapatinib
  log2 fold change: inactive: -0.358

## SCYL2 (UniProt Q6P3W7)
[1]
  log2 fold change: inactive: -0.017
filanesib
  log2 fold change: inactive: -0.038
zotarolimus
  log2 fold change: inactive: 0.012
idasanutlin
  log2 fold change: inactive: -0.057
alisertib
  log2 fold change: inactive: 0.035
[2]
  log2 fold change: inactive: 0.033
gefitinib
  log2 fold change: inactive: -0.006
[3]
  log2 fold change: inactive: -0.008
lapatinib
  log2 fold change: inactive: -0.006
pictilisib
  log2 fold change: inactive: -0.002

## SEC11A isoform 3 (UniProt P67812)
[1]
  log2 fold change: inactive: -0.09
filanesib
  log2 fold change: inactive: -0.015
zotarolimus
  log2 fold change: inactive: -0.003
idasanutlin
  log2 fold change: inactive: -0.046
alisertib
  log2 fold change: inactive: -0.073
[2]
  log2 fold change: inactive: 0.022
gefitinib
  log2 fold change: inactive: 0.004
[3]
  log2 fold change: inactive: 0.013
lapatinib
  log2 fold change: inactive: 0.056
pictilisib
  log2 fold change: inactive: -0.072

## SCLT1 (UniProt Q96NL6)
[1]
  log2 fold change: active: 0.433
filanesib
  log2 fold change: inactive: -0.063
zotarolimus
  log2 fold change: inactive: 0.079
alisertib
  log2 fold change: inactive: -0.205
gefitinib
  log2 fold change: inactive: -0.022
[3]
  log2 fold change: inactive: 0.046
pictilisib
  log2 fold change: inactive: 0.185

## RSBN1 (UniProt Q5VWQ0)
[1]
  log2 fold change: inactive: -0.185
filanesib
  log2 fold change: inactive: 0.376
zotarolimus
  log2 fold change: inactive: -0.057
idasanutlin
  log2 fold change: inactive: 0.344
alisertib
  log2 fold change: inactive: -0.037
[2]
  log2 fold change: inactive: -0.082
gefitinib
  log2 fold change: inactive: -0.05
[3]
  log2 fold change: inactive: -0.112
lapatinib
  log2 fold change: inactive: 0.127
pictilisib
  log2 fold change: inactive: -0.115

## S100P (UniProt P25815)
[1]
  log2 fold change: inactive: 0.151
filanesib
  log2 fold change: inactive: 0.081
zotarolimus
  log2 fold change: inactive: 0.041
idasanutlin
  log2 fold change: inactive: -0.033
alisertib
  log2 fold change: inactive: -0.013
[2]
  log2 fold change: inactive: -0.031
gefitinib
  log2 fold change: inactive: -0.002
[3]
  log2 fold change: inactive: 0.022
lapatinib
  log2 fold change: inactive: -0.086
pictilisib
  log2 fold change: inactive: 0.087

## RSU1 (UniProt Q15404)
[1]
  log2 fold change: inactive: -0.036
filanesib
  log2 fold change: inactive: -0.011
zotarolimus
  log2 fold change: inactive: -0.016
idasanutlin
  log2 fold change: inactive: -0.01
alisertib
  log2 fold change: inactive: -0.062
[2]
  log2 fold change: inactive: 0.012
gefitinib
  log2 fold change: inactive: -0.006
[3]
  log2 fold change: inactive: 0.002
lapatinib
  log2 fold change: inactive: -0.006
pictilisib
  log2 fold change: inactive: -0.004

## SBF1 isoform 4 (UniProt O95248)
[1]
  log2 fold change: inactive: -0.442
filanesib
  log2 fold change: inactive: 0.267
zotarolimus
  log2 fold change: inactive: 0.057
idasanutlin
  log2 fold change: inactive: 0.063
alisertib
  log2 fold change: inactive: -0.041
[2]
  log2 fold change: inactive: -0.071
gefitinib
  log2 fold change: inactive: -0.137
[3]
  log2 fold change: inactive: 0.094
lapatinib
  log2 fold change: inactive: -0.003
pictilisib
  log2 fold change: inactive: 0.176

## SAMM50 (UniProt Q9Y512)
[1]
  log2 fold change: inactive: 0.007
filanesib
  log2 fold change: inactive: -0.043
zotarolimus
  log2 fold change: inactive: -0.019
idasanutlin
  log2 fold change: inactive: -0.008
alisertib
  log2 fold change: inactive: -0.082
[2]
  log2 fold change: inactive: -0.05
gefitinib
  log2 fold change: inactive: 0.007
[3]
  log2 fold change: inactive: 0.039
lapatinib
  log2 fold change: inactive: -0.015
pictilisib
  log2 fold change: inactive: 0.027
